Experimental data as given in PubChem BioAssay AID248 (DTP/NCI, 2004).
The list is a part of this screen's results and no random one: it gathers tests that were run many times, whatever their T/C, doses with no T/C, and many T/C values between a quarter and a half above the control. Further doses and runs are listed elsewhere. T/C gives the treated animals as a percentage of the vehicle group. Some doses have a count of surviving animals in place of a T/C: the source holds a T/C of zero for them, seemingly a mark for toxic or unscored doses. Some survivor counts are full or nearly so, which does not show that the dose was tolerated: survival well below the control is almost never listed, so the zero probably covers shortened survival too. Counts of survivors are from the toxicity check (mostly the fifth day) where no day follows; animals may have died later. Schedules are NCI's codes, taken here to give the interval after Q, in days (D) or hours (H), and the number of doses after X. Some entries were tested several times; their values stand side by side, smallest first. Some schedules carry Z or #; the key to these is not given. Where survival is the endpoint, this PubChem deposit counts one and a half times the control or more as active, and values a quarter to a half above the control carry no call in these data; other NCI protocols may use other cut-offs.

Test system: L1210 leukemia ip in BDF1 mice, survival T/C
Test: NCI In Vivo Anticancer Drug Screen. Data for tumor model L1210 Leukemia (intraperitoneal) in B6D2F1 (BDF1) mice
Settings: T/C endpoint: mean survival time, higher T/C = longer survival
[1] = dose: 200.0 mg/kg/injection, schedule: Q04DX003 (ip), vehicle: saline
[2] = dose: 400.0 mg/kg/injection, schedule: Q04DX003 (ip), vehicle: saline
[3] = dose: 400.0 mg/kg/injection, schedule: Q01DX001 (ip), vehicle: carboxymethylcellulose (CMC)
[4] = dose: 200.0 mg/kg/injection, schedule: Q01DX009 (ip), vehicle: saline with Tween-80
[5] = dose: 400.0 mg/kg/injection, schedule: Q04DX003 (ip), vehicle: saline with Tween-80
[6] = dose: 150.0 mg/kg/injection, schedule: Q01DX001 (ip), vehicle: saline
[7] = dose: 300.0 mg/kg/injection, schedule: Q01DX001 (ip), vehicle: saline
[8] = dose: 200.0 mg/kg/injection, schedule: Q01DX001 (ip), vehicle: carboxymethylcellulose (CMC)

CN(C)CC(CN1c2ccccc2Sc2ccccc21)N(C)C (stereo unspecified)
survivor count (dose: 100.0 mg/kg/injection, schedule: Q01DX009 (ip), vehicle: saline): 0 of 6
survivor count [1]: 0 of 4
survivor count [2]: 0 of 4

COc1cc2c(cc1OC)C(Cc1ccc(OC(=O)O)cc1)=NCC2
survivor count [3]: 1 of 4

C/C=C\C=N\NC(=O)CCCCCCCCCCC
survivor count (dose: 200.0 mg/kg/injection, schedule: Q01DX009 (ip), vehicle: Klucel (hydroxypropylcellulose) (HPC)): 6 of 6
survivor count (dose: 400.0 mg/kg/injection, schedule: Q01DX009 (ip), vehicle: Klucel (hydroxypropylcellulose) (HPC)): 0 of 6

CCN(CC)CC#CCN(CC)CC
survivor count [4]: 2 of 6
survivor count [5]: 0 of 6

CC1CN1CO (stereo unspecified)
survivor count [6]: 0 of 6
survivor count [7]: 0 of 6

CCOc1nc(N)nc2n[nH]nc12
survivor count (dose: 350.0 mg/kg/injection, schedule: Q01DX Z (ip), vehicle: carboxymethylcellulose (CMC)): 0 of 6

CC(=O)OC1CCC2(C)C(C)CC3C(=O)OC32C1 (stereo unspecified)
survivor count (dose: 400.0 mg/kg/injection, schedule: Q04DX003 (ip), vehicle: acetone): 5 of 6

NC(=O)C1(c2ccccc2)CCN(Cc2ccccc2)CC1
survivor count (dose: 200.0 mg/kg/injection, schedule: Q04DX003 (ip), vehicle: saline with Tween-80): 5 of 6

O=C(Nc1ccc2cc(S(=O)(=O)O)ccc2c1)c1ccc(N=Nc2c(S(=O)(=O)O)cc3cc(S(=O)(=O)O)cc(NC(=O)c4ccccc4)c3c2O)cc1
survivor count (dose: 225.0 mg/kg/injection, schedule: Q01DX009 (ip), vehicle: other): 0 of 6
survivor count [5]: 5 of 6

N=c1ncn(C2OC(CO[P+](N)(O)O)C(O)C2O)c2nc[nH]c12 (stereo unspecified)
survivor count (dose: 50.0 mg/kg/injection, schedule: Q01DX005 (ip), vehicle: water): 5 of 6
survivor count (dose: 100.0 mg/kg/injection, schedule: Q01DX005 (ip), vehicle: water): 0 of 6
survivor count (dose: 200.0 mg/kg/injection, schedule: Q01DX005 (ip), vehicle: water): 0 of 6

O=C(Nc1cc(C(F)(F)F)cc(C(F)(F)F)c1)Nc1c(Oc2ccc(Cl)cc2Cl)ccc(Cl)c1S(=O)(=O)O
survivor count (dose: 400.0 mg/kg/injection, schedule: Q04DX003 (ip), vehicle: saline sonified): 3 of 6

C=C1C(=O)OC2C1C(OC(=O)/C(=C/C)COC(C)=O)CC1(CO1)C1C(OC(=O)/C(=C/C)CO)C3OC3(C)C21 (stereo unspecified)
survivor count (dose: 12.5 mg/kg/injection, schedule: Q01DX009 (ip), vehicle: alcohol): 1 of 6
survivor count (dose: 25.0 mg/kg/injection, schedule: Q01DX009 (ip), vehicle: alcohol): 2 of 6
survivor count (dose: 50.0 mg/kg/injection, schedule: Q01DX009 (ip), vehicle: alcohol): 0 of 6
survivor count (dose: 100.0 mg/kg/injection, schedule: Q01DX009 (ip), vehicle: alcohol): 0 of 6
survivor count (dose: 200.0 mg/kg/injection, schedule: Q01DX009 (ip), vehicle: alcohol): 0 of 6
survivor count (dose: 400.0 mg/kg/injection, schedule: Q01DX009 (ip), vehicle: alcohol): 0 of 6

Nc1ccc(C(=O)O)c(O)c1.Nc1ccc(C(=O)O)c(O)c1.[Na+].[O]=[V]
survivor count (dose: 64.0 mg/kg/injection, schedule: Q01DX015 (ip), vehicle: carboxymethylcellulose (CMC)): 0 of 6

[Cl][Pt+2][Cl].[NH-]CCN1CC1
T/C [1]: 128 and 130 % of control
T/C [2]: 130 and 136 % of control
survivor count (dose: 600.0 mg/kg/injection, schedule: Q04DX003 (ip), vehicle: saline): 1 of 6

CS/C(N)=N\N=C\c1ccccn1
survivor count (dose: 50.0 mg/kg/injection, schedule: Q01DX001 (ip), vehicle: carboxymethylcellulose (CMC)): 1 of 6
survivor count (dose: 100.0 mg/kg/injection, schedule: Q01DX001 (ip), vehicle: carboxymethylcellulose (CMC)): 1 of 6
survivor count [8]: 0 of 6
survivor count [3]: 0 of 6

O=C1NC(=S)S/C1=C\c1c(Cl)cccc1Cl
survivor count (dose: 150.0 mg/kg/injection, schedule: Q01DX001 (ip), vehicle: other): 0 of 6
survivor count (dose: 300.0 mg/kg/injection, schedule: Q01DX001 (ip), vehicle: other): 0 of 6

CC(C)NCCNc1ccnc2cc(Cl)ccc12
survivor count (dose: 75.0 mg/kg/injection, schedule: Q01DX001 (ip), vehicle: saline): 2 of 6
survivor count [6]: 0 of 6
survivor count [7]: 0 of 6

O=Cc1ccc(/C=C2\NC(=O)NC2=O)cc1
survivor count (dose: 400.0 mg/kg/injection, schedule: Q01DX009 (ip), vehicle: water): 6 of 6

CC1CCC(NC(=O)NCCCl)CC1 (stereo unspecified)
survivor count (dose: 100.0 mg/kg/injection, schedule: Q01DX009 (ip), vehicle: saline sonified): 6 of 6
survivor count (dose: 200.0 mg/kg/injection, schedule: Q01DX009 (ip), vehicle: saline sonified): 6 of 6
survivor count (dose: 400.0 mg/kg/injection, schedule: Q01DX009 (ip), vehicle: saline sonified): 5 of 6

CC1(C)N=C(N)N=C(N)N1c1ccc(OCCCc2ccccc2)c(N)c1
survivor count (dose: 100.0 mg/kg/injection, schedule: Q04DX003 (ip), vehicle: saline with Tween-80): 3 of 6

Nc1ccc(Nc2cc(S(=O)(=O)O)c(N)c3c2C(=O)c2ccccc2C3=O)cc1
survivor count (dose: 200.0 mg/kg/injection, schedule: Q01DX001 (ip), vehicle: saline): 3 of 6

CC1(C)COC(=S)N1
survivor count (dose: 10.0 mg/kg/injection, schedule: Q04DX003 (ip), vehicle: Klucel (hydroxypropylcellulose) (HPC)): 6 of 6
survivor count (dose: 20.0 mg/kg/injection, schedule: Q01DX009 (ip), vehicle: Klucel (hydroxypropylcellulose) (HPC)): 2 of 6
survivor count (dose: 20.0 mg/kg/injection, schedule: Q01DX009 (ip), vehicle: saline): 1 of 10
survivor count (dose: 25.0 mg/kg/injection, schedule: Q01DX009 (ip), vehicle: Klucel (hydroxypropylcellulose) (HPC)): 6 of 6
survivor count (dose: 40.0 mg/kg/injection, schedule: Q01DX009 (ip), vehicle: Klucel (hydroxypropylcellulose) (HPC)): 0 of 6
survivor count (dose: 40.0 mg/kg/injection, schedule: Q04DX003 (ip), vehicle: Klucel (hydroxypropylcellulose) (HPC)): 0 of 6
survivor count (dose: 50.0 mg/kg/injection, schedule: Q01DX009 (ip), vehicle: Klucel (hydroxypropylcellulose) (HPC)): 0 of 6

CC1C2C=CC(C2)C1C(=O)O (stereo unspecified)
survivor count [5]: 6 of 6

NC(=O)C1(Nc2ccc(-c3ccc(NC4(C(N)=O)CCCC4)cc3)cc2)CCCC1
survivor count [3]: 4 of 4

COc1ccc(C(C#N)=C2C=CC(=NO)C=C2)cc1
survivor count [4]: 5 of 6
survivor count (dose: 400.0 mg/kg/injection, schedule: Q01DX009 (ip), vehicle: saline with Tween-80): 1 of 6

C[N+](C)(C)/N=C/C1=C(Cl)CCCC1
survivor count (dose: 25.0 mg/kg/injection, schedule: Q04DX002 (ip), vehicle: Klucel (hydroxypropylcellulose) (HPC)): 3 of 3
survivor count (dose: 50.0 mg/kg/injection, schedule: Q04DX002 (ip), vehicle: Klucel (hydroxypropylcellulose) (HPC)): 0 of 3
survivor count (dose: 100.0 mg/kg/injection, schedule: Q04DX002 (ip), vehicle: Klucel (hydroxypropylcellulose) (HPC)): 0 of 3
survivor count (dose: 150.0 mg/kg/injection, schedule: Q01DX001 (ip), vehicle: carboxymethylcellulose (CMC)): 0 of 6
survivor count (dose: 300.0 mg/kg/injection, schedule: Q01DX001 (ip), vehicle: carboxymethylcellulose (CMC)): 0 of 6

CCN(CC)c1ccc(NCN2C(=O)c3ccccc3C2=O)c(C)c1
survivor count (dose: 400.0 mg/kg/injection, schedule: Q04DX002 (ip), vehicle: saline with Tween-80): 3 of 3

CC(NC1=NCCO1)c1cccc2ccccc12 (stereo unspecified)
survivor count (dose: 100.0 mg/kg/injection, schedule: Q01DX009 (ip), vehicle: saline with Tween-80): 2 of 6

CC(C)C1(NC(=O)C2C=C3c4cccc5[nH]cc(c45)CC3N(C)C2)OC2(O)C3CCCN3C(=O)C(Cc3ccccc3)N2C1=O (stereo unspecified)
survivor count (dose: 100.0 mg/kg/injection, schedule: Q01DX001 (ip), vehicle: saline): 6 of 6
survivor count [8]: 2 of 4
survivor count [3]: 0 of 4
survivor count (dose: 400.0 mg/kg/injection, schedule: Q01DX001 (ip), vehicle: saline): 1 of 6 and 1 of 4
